Measurements published in PubChem BioAssay AID493014 (National Center for Advancing Translational Sciences (NCATS), 2011).
In all, about 340,000 compounds went through this assay and about 170 (0.05%) were called active. The inconclusive results got no clear call from the source; some entries with a clear call stand among them for comparison. The call rests on the fitted dose curve; in most records, active means well fitted inhibition curve with a large enough effect in the signal ratio, with a control signal flat (not every such curve was filed as active); inconclusive means small, poorly fitted or top-dose-only effect, or effect the other way, or a change in a side signal; inactive means flat fitted curve, though single readings scatter; the % refers to the signal ratio. Potencies beside an inconclusive call are fits to weak or partial responses and may not hold up.

Experiment: qHTS Assay to Find Inhibitors of Chronic Active B-Cell Receptor Signaling;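 on activity change, negative = inhibition: plate controls were basal doxycycline-induced cells for no effect and cells given 10 µM MG132 for full effect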
Details: ABC-DLBCL IkBa-CBG/CBR reporter, luminescence ratio (green luciferase fused to IkBa over red control in TMD8 lymphoma cells), 4 h; activity change, negative = inhibition: at 46.1 µM (top of the series) unless noted
In short: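 Concentration-response series (up to 46 uM) were applied to TMD8 dual-reporter cells for 4 h at 37C with doxycycline. Green/red ratio, after filter-overlap correction, defined %Activity; red signal alone was normalised to basal cells and zero luminescence.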
Potency means the concentration at half of the fitted maximal effect.

Row | Compound | Potency | activity change, negative = inhibition
1 | O=[N+]([O-])c1ccc(-c2nc(NCc3ccccc3)c3ccccc3n2)cc1 | inconclusive: 0.651 µM [rising, full curve, poor fit] | 
2 | CCCCOC(=O)c1ccc(NC(=O)COC(=O)CSc2nc(C)cc(C)n2)cc1 |  | inconclusive: 0.888%
3 | CCCn1c(N2CCOCC2)nc2c1c(=O)[nH]c(=O)n2C |  | inactive: 3.67%
4 | CC(C)(C)c1ccc(OCCC(=O)Nc2cccc(S(=O)(=O)N3CCCCC3)c2)cc1 |  | inconclusive: 1.53%
5 | CCOc1ccccc1C(=O)OCC(=O)Nc1nnc(-c2ccccc2)o1 |  | inconclusive: -24.5%
6 | COCc1ccc(-c2c(-c3cc(OC)cc(OC)c3)oc(=O)c3cc(OC)c(OC)cc23)cc1 |  | inconclusive: 0.144%
7 | O=C1S/C(=C\c2ccc(O)c([N+](=O)[O-])c2)C(=O)N1Cc1cccc([N+](=O)[O-])c1 | inconclusive: 11.2 µM [rising, single point] | 
8 | CCOC(=O)Cn1cc(C(=O)C2CC2)c2ccccc21 |  | inactive: 1.03%
9 | Cc1c(-c2cccc(Cl)c2)nc2ccccc2c1C(=O)OCC(=O)N(C)C1CCS(=O)(=O)C1 (stereo not given) | inconclusive: 35.5 µM [activator, single point] | 
10 | CC(=O)Nc1ccc(C(=O)CN2CCN(c3ccccc3)CC2)cc1 |  | inactive: -14.2%
11 | Cc1ccccc1NC1=CC(=O)CC(C)(C)C1 | inconclusive: 20.6 µM [falling, single point] | 
12 | Cc1cccc(NC(=O)c2ccc3[nH]c(=O)c(=O)[nH]c3c2)n1 |  | inconclusive: 4.11%
13 | Cc1ccc([C@@H]2CC=C(C(=O)O)[C@H](c3cccc(Cl)c3)N2S(=O)(=O)c2ccc(C)cc2)cc1 |  | inconclusive: -24.6%
14 | Cc1ccc2nc(SCC(=O)Nc3ccc(F)c([N+](=O)[O-])c3)[nH]c2c1 |  | inconclusive: 1.79%
15 | CCO[C@@H]1OC(C(N)=O)=C[C@H](C2CCCCC2)[C@H]1CCCO |  | inconclusive: -1.68%
16 | Cc1cc(C)cc(-n2nnc(C(=O)NCc3ccco3)c2N)c1 | inconclusive: 9.2 µM [falling, partial curve, poor fit] | 
17 | N/C(=N\OC(=O)c1cccs1)c1cccc(Br)c1 |  | inconclusive: 0.195%
18 | CC(NCC(O)COc1ccc(Br)cc1)c1ccccc1 (stereo not given) |  | inactive: 4.85%
19 | O=C(Nc1ccc2c(c1)OCCO2)c1cnc2n(c1=O)CCS2 | inconclusive: 6.51 µM [falling, partial curve, poor fit] | 
20 | Cn1c(=S)[nH]c(=O)c2ncc(=O)[nH]c21 |  | inconclusive: 2.74%
21 | S=C(Nc1ccc(Cl)cc1Cl)NC1CCCCC1 | inconclusive: 17.8 µM [falling, single point] | 
22 | O=C(CC(C(=O)O)c1cccc(Cl)c1)c1ccccc1 (stereo not given) |  | inconclusive: 4.69%
23 | CCOc1ccc(C2C(C#N)=C(N)N3C(=C2C#N)Sc2ccccc23)cc1 (stereo not given) |  | inconclusive: 7.27%
24 | COc1ccc(OCc2cc(/C=N\NC(=O)c3ccccc3)ccc2OC)cc1 | inconclusive: 10 µM [falling, partial curve] | 
25 | O=C(COC(=O)c1cc(Cl)ccc1[N+](=O)[O-])Nc1cccc2ccccc12 | inconclusive: 14.6 µM [falling, partial curve, poor fit] | 

Entries of single compounds, quoted from the list.
`CC(C)(C)c1ccc(OCCC(=O)Nc2cccc(S(=O)(=O)N3CCCCC3)c2)cc1` in the list: activity change, negative = inhibition: inconclusive: 1.53%
`S=C(Nc1ccc(Cl)cc1Cl)NC1CCCCC1` in the list: Potency: inconclusive: 17.8 µM [falling, single point]

Further entries follow:

Row | Compound | Potency | activity change, negative = inhibition
26 | Cn1c(=S)[nH]c2sc3c(c2c1=O)CCC(C(C)(C)C)C3 (stereo not given) |  | inactive: 8.64%
27 | CCOC(=O)c1c(N)sc(C(=O)N2CCOCC2)c1C |  | inactive: -0.881%
28 | O=C(O)/C=C/c1nc(-c2ccccc2)n2ccccc12 | inconclusive: 13 µM [falling, partial curve, poor fit] | 
29 | Cc1cc(C)n2nc(C(=O)N/N=C/c3cccc(Cl)c3)nc2n1 |  | inactive: -1.6%
30 | CCCNC(=S)N1CCN(c2nc(C)nc3sc4c(c23)CCCC4)CC1 |  | inconclusive: -10.5%
31 | CCOC(=O)CN1C(=O)SC(CC(=O)Nc2nccs2)C1=O (stereo not given) |  | inconclusive: 4.24%
32 | C/C(=N\Nc1nc2ccccc2[nH]1)c1ccc([N+](=O)[O-])cc1 |  | inactive: 1.06%
33 | COc1ccccc1CNC(=O)COC(=O)c1cccc(S(=O)(=O)N2CCOCC2)c1 |  | inconclusive: 3.12%
34 | C=CC[N+]1(CC(=O)NCc2ccc(NC(C)=O)cc2)CCOCC1 |  | inconclusive: 1.2%
35 | COc1ccccc1NC(=O)C1CCCN(c2ncnc3c2nc2n3CCCCC2)C1 (stereo not given) |  | inactive: -1.58%
36 | N#Cc1cccc(C#N)c1NCC1CCCO1 (stereo not given) |  | inconclusive: 5.24%
37 | CCOc1cccc(C(=O)Nc2ccncc2)c1 | inconclusive: 35.5 µM [falling, partial curve, poor fit] | 
38 | Cc1c(Cl)cccc1NC(=S)NC1CCN(Cc2ccccc2)CC1 |  | inactive: -2.27%
39 | CCOc1ccc(OCC(O)CNC2CCN(Cc3ccccc3)CC2)cc1 (stereo not given) |  | inconclusive: -29.5%
40 | N=c1c[n+](N2CCOCC2)[n-]o1 | inconclusive: 10 µM [falling, partial curve, poor fit] | 
41 | CC(C)[C@H](NC(=O)c1c(F)cccc1F)C(=O)N1CCN(c2ccc(F)cc2)CC1 |  | inactive: 1.34%
42 | COc1ccc(CNC(=O)COc2ccc(S(=O)(=O)N3CCCCC3)cc2)cc1 |  | inactive: -0.87%
43 | Cc1ccc(O)c(Nc2ncnc3ccccc23)c1 |  | inconclusive: -8.22%
44 | COC(=O)C1=C(C)N(c2ccc(F)cc2)/C(=C/c2ccc(O)cc2)C1=O | inconclusive: 10 µM [falling, partial curve] | 
45 | NS(=O)(=O)c1ccc(NC(=S)Nc2ccc(Br)c(Cl)c2)cc1 |  | inconclusive: 17.3%
46 | CC1(C)SC(=S)N(Cc2ccc3c(c2)OCO3)C1N(O)C(=O)NC1CCCCC1 (stereo not given) |  | inconclusive: 1.6%
47 | O=C(N/N=C/c1ccc(F)cc1)c1cccc(NC(=O)c2ccc(F)cc2)c1 | inconclusive: 35.5 µM [falling, single point] | 
48 | CCN(CC)S(=O)(=O)c1ccc2c(c1)c(=O)c(C(=O)N1CCN(c3ccccc3)CC1)cn2C | inconclusive: 16.4 µM [falling, partial curve] | 
49 | Cc1ccc(S(=O)(=O)N2[C@@H](c3ccc(C(C)(C)C)cc3)C(C(=O)O)=CC[C@H]2c2cccs2)cc1 |  | inconclusive: -8.02%
50 | COc1cc(OC)c2c(-c3ccccc3)cc(=O)oc2c1C(CC(=O)N1CCOCC1)c1ccc2c(c1)OCO2 (stereo not given) |  | inactive: 1.64%

Part of the list above, comma-delimited.
Row,Compound,Potency,"activity change, negative = inhibition"
30,CCCNC(=S)N1CCN(c2nc(C)nc3sc4c(c23)CCCC4)CC1,,inconclusive: -10.5%
31,CCOC(=O)CN1C(=O)SC(CC(=O)Nc2nccs2)C1=O (stereo not given),,inconclusive: 4.24%
32,C/C(=N\Nc1nc2ccccc2[nH]1)c1ccc([N+](=O)[O-])cc1,,inactive: 1.06%
33,COc1ccccc1CNC(=O)COC(=O)c1cccc(S(=O)(=O)N2CCOCC2)c1,,inconclusive: 3.12%
34,C=CC[N+]1(CC(=O)NCc2ccc(NC(C)=O)cc2)CCOCC1,,inconclusive: 1.2%
35,COc1ccccc1NC(=O)C1CCCN(c2ncnc3c2nc2n3CCCCC2)C1 (stereo not given),,inactive: -1.58%
36,N#Cc1cccc(C#N)c1NCC1CCCO1 (stereo not given),,inconclusive: 5.24%
37,CCOc1cccc(C(=O)Nc2ccncc2)c1,"inconclusive: 35.5 µM [falling, partial curve, poor fit]",
38,Cc1c(Cl)cccc1NC(=S)NC1CCN(Cc2ccccc2)CC1,,inactive: -2.27%
39,CCOc1ccc(OCC(O)CNC2CCN(Cc3ccccc3)CC2)cc1 (stereo not given),,inconclusive: -29.5%
40,N=c1c[n+](N2CCOCC2)[n-]o1,"inconclusive: 10 µM [falling, partial curve, poor fit]",
41,CC(C)[C@H](NC(=O)c1c(F)cccc1F)C(=O)N1CCN(c2ccc(F)cc2)CC1,,inactive: 1.34%
